In patent publication US20180369327A1, “METHOD FOR TREATING OR PREVENTING OSTEOARTHRITIS” (Dong-A University Research Foundation for Industry-Academy …, priority 2017, published 2018):
For at least one compound, name, drawing or mass did not settle the structure.

Columns and labels:
[1] = tested on: rat articular chondrocytes; assay: DNA hypoploidy / cell cycle analysis by flow cytometry (apoptosis); type: cell-based; conditions: oleate at 1.5 mM
Method: Rat articular chondrocytes for primary culture were isolated from knee joint cartilage slices by enzymatic digestion for 1 h with 0.2% type II collagenase (381 units/mg) in DMEM. After the isolated cells were collected by brief centrifugation, they were resuspended in DMEM supplemented with 10% (v/v) FBS, […] streptomycin and 50 units/ml penicillin (Gibco). The cells were plated on culture dishes at a density of 5×10^4 cells/cm^2. The medium was replaced every 2 days, and they reached confluence after approximately 5 days in culture. In each experiment, the cells from three animals were pooled and analyzed three times. FFA were dissolved in absolute ethanol at a concentration of 500 mM and diluted to final concentrations of FFAs with the appropriate concentration of 1% (w/v) FFA-free BSA. Controls were incubated with equal concentrations of FFA-free BSA containing ethanol. […] Cells were washed twice with PBS, and fixed with cold 70% ethanol at 4° C. overnight. The fixed cells were pelleted and ethanol was removed by washing twice with PBS containing 1% bovine serum albumin (BSA). The cells were resuspended in 1 ml of PBS containing 11 Kunitz U/ml RNase A, incubated at 4° C. for 30 min and washed once with BSAPBS. Cells were resuspended in PI solution (50 μg/ml) and incubated at 37° C. for 30 min in dark. […]

[2] = tested on: rat articular chondrocytes; assay: Flow cytometry of cells stained with BODIPY 493/503; type: cell-based
[3] = tested on: caspase-3 and -7; assay: Western blot of apoptosis-related factors (caspase-3 and -7 activation); type: cell-based, rat; conditions: 1.5 mM oleate; n=4
Method: (§1) Rat articular chondrocytes for primary culture were isolated from knee joint cartilage slices by enzymatic digestion for 1 h with 0.2% type II collagenase (381 units/mg) in DMEM. After the isolated cells were collected by brief centrifugation, they were resuspended in DMEM supplemented with 10% (v/v) FBS, […] streptomycin and 50 units/ml penicillin (Gibco). The cells were plated on culture dishes at a density of 5×10^4 cells/cm^2. The medium was replaced every 2 days, and they reached confluence after approximately 5 days in culture. In each experiment, the cells from three animals were pooled and analyzed three times. FFA were dissolved in absolute ethanol at a concentration of 500 mM and diluted to final concentrations of FFAs with the appropriate concentration of 1% (w/v) FFA-free BSA. Controls were incubated with equal concentrations of FFA-free BSA containing ethanol. […] Cell (2×10^6) were washed twice with ice-cold PBS. Cells were resuspended in lysis buffer [200 ll of icecold solubilizing buffer (300 mM NaCl, 50 mM Tris-Cl (pH 7.6), 0.5% Triton X-100, protease inhibitor cocktail)] and incubated at 4° C. for 30 min. […] The protein concentrations of the cell lysates were measured with the Bradford protein assay reagent (Bio-Rad). […] Immunostaining with the antibodies was carried out using the Super Signal West Pico enhanced chemiluminescence substrate and detected with LAS-3000PLUS.

[4] = tested on: rat articular chondrocytes; assay: Total cytosol FFA content measurement; type: cell-based; conditions: 1.5 mM oleate versus experimental control
Method: Cell were collected after treatment with trypsin (0.2% trypsin, 0.02% EDTA and 0.2% glucose in PBS) and pelleted by centrifugation (200×g for 5 min at 4° C.). Cell pellet was resuspended in ice-cold hypotonic lysis medium containing 20 mM Tris-HCl, pH 7.4 and 1 mM EDTA. Cells were homogenized with a Dounce homogenizer and then centrifuged (800×g for 5 min at 4° C.). The post-nuclear supernatant fraction was ultra-centrifuged ([…] for 5 min at 4° C.) using Beckman Table-top ultracentrifuge. LD fraction with the distinct white band on the preparation was removed with a pipetman and LD-free cytosol was used for FFA measurement. Cytosol FFA levels were measured using a commercial free fatty acid quantification kit from Abcam (ab65341).

[5] = tested on: FSP27; assay: Western blot of FSP27 protein in articular chondrocytes; type: cell-based, rat; conditions: 1.5 mM oleate; n=4
Method: as §1

[6] = tested on: PKCK2; assay: Western blot of PKCK2 protein in articular chondrocytes; type: cell-based, rat; conditions: oleate at 1.5 mM
[7] = tested on: rat articular chondrocytes; assay: Hoechst nuclear morphology study for apoptosis; type: cell-based; conditions: 1.5 mM oleate
[8] = tested on: STAMP2; assay: Western blot of STAMP2 protein in articular chondrocytes; type: cell-based, rat; conditions: FFA at toxic concentrations; n=4
Method: as §1

[9] = tested on: rat articular chondrocytes; assay: Cell viability assay (automated trypan blue exclusion); type: cell-based
Method: Rat articular chondrocytes for primary culture were isolated from knee joint cartilage slices by enzymatic digestion for 1 h with 0.2% type II collagenase (381 units/mg) in DMEM. After the isolated cells were collected by brief centrifugation, they were resuspended in DMEM supplemented with 10% (v/v) FBS, […] streptomycin and 50 units/ml penicillin (Gibco). The cells were plated on culture dishes at a density of 5×10^4 cells/cm^2. The medium was replaced every 2 days, and they reached confluence after approximately 5 days in culture. In each experiment, the cells from three animals were pooled and analyzed three times.
FFA were dissolved in absolute ethanol at a concentration of 500 mM and diluted to final concentrations of FFAs with the appropriate concentration of 1% (w/v) FFA-free BSA. Controls were incubated with equal concentrations of FFA-free BSA containing ethanol. To examine the effect of several chemicals, cells were pretreated with 150 μg/mL DRB or 30 μM cilostazol for 24 h or 25 ng/ml TNF-α for 3 h before FFA treatment.
siRNA transfection or combination treatment with FFAs. Transfection of siRNA was performed with the use of siPORT Amine and Opti-MEM media. Cells grown to a confluence of 40% to 50% in six-well plates were transfected with 100 nM final siRNA concentration per well. Transfection mixture was added to each well, and incubation occurred for 4 h. Then 2 ml of growth medium was added, and cells were incubated for another 20 h. After siRNA transfection medium was removed, each well was washed in PBS solution. Cells were treated with FFAs for 24 hours.
Recombinant adenoviral STAMP2 was prepared as described previously34. Cells (1×10^7) were infected with recombinant adenoviral STAMP2 at multiplicities of infection (MOI) of 500, 1000 and 1500 to the medium.
An automated trypan blue exclusion assay was undertaken. Total cells and trypan bluestained (i.e., nonviable) cells were counted, and the percentage of nonviable cells was calculated using the Vi-Cell cell counter (Beckman Coulter, Miami, Fla., USA).

[10] = tested on: lipid droplets (LD) in rat articular chondrocytes; assay: Lipid droplet staining (Nile red, BODIPY), confocal microscopy and quantification; type: cell-based
Method: Rat articular chondrocytes for primary culture were isolated from knee joint cartilage slices by enzymatic digestion for 1 h with 0.2% type II collagenase (381 units/mg) in DMEM. After the isolated cells were collected by brief centrifugation, they were resuspended in DMEM supplemented with 10% (v/v) FBS, […] streptomycin and 50 units/ml penicillin (Gibco). The cells were plated on culture dishes at a density of 5×10^4 cells/cm^2. The medium was replaced every 2 days, and they reached confluence after approximately 5 days in culture. In each experiment, the cells from three animals were pooled and analyzed three times. FFA were dissolved in absolute ethanol at a concentration of 500 mM and diluted to final concentrations of FFAs with the appropriate concentration of 1% (w/v) FFA-free BSA. Controls were incubated with equal concentrations of FFA-free BSA containing ethanol. […] Cells cultured on a coverslip were incubated with diluted Nile red or BODIPY 493/503. Some sections were double-labelled with TUNEL and BODIPY 493/503 and counterstained with Hoechst 33342. Fluorescence images were observed and analyzed using a Zeiss LSM 510 laser-scanning confocal microscope (Goettingen, Germany). Twenty cells from each experiment were observed and auantification of fluorescence intensity of the confocal images were obtained with the use of ImageJ software. Fluorescence intensity was expressed as AU.

| SMILES | number of apoptotic cells (cell cycle histograms) [1] | cell size and granularity (neutral lipid accumulation) ([2]; 1.5 mM oleate) | cell size and granularity (neutral lipid accumulation) ([2]; 1 to 1.25 mM oleate) | activation of apoptosis-related factors [3] | FFA level in the cytosol [4] | expression level of FSP27 protein [5] | expression level of PKCK2 protein [6] | number of cells with condensed apoptotic nuclei (Hoechst staining) [7] | expression level of STAMP2 [8] | effect on palmitate-induced lipotoxicity (viability) ([9]; 0.4 mM oleate, 0.6 and 1.6 mM palmitate, n=4) | cell death in STAMP2-depleted chondrocytes ([9]; 1 mM oleate, STAMP2 knockdown) | effect on palmitate-induced lipotoxicity (viability) ([9]; 0.2 and 0.4 mM oleate supplementation, 0.4-1.8 mM palmitate, n=4) | cell viability ([9]; oleate alone at 0.5 to 1.25 mM) | cell viability ([9]; oleate alone at 1.5 to 2.0 mM, n=4) | LD size ([10]; 1.5 mM oleate) | total LD volume ([10]; 1.5 mM oleate versus 1 mM oleate, n=4) | LD size ([10]; oleate at 1-1.25 mM) | LD accumulation ([10]; oleate supplementation (0.4 mM) in cells treated with 0.6 mM or 1.6 mM palmitate) | cell viability ([9]; FFA alone at 0.5 to 2 mM, n=4) |
| --- | --- | --- | --- | --- | --- | --- | --- | --- | --- | --- | --- | --- | --- | --- | --- | --- | --- | --- | --- |
| CCCCCCCC/C=C\CCCCCCCC(=O)O [oleate] | markedly increased the number of apoptotic cells | decreased | increase in size and granularity | significantly induced the activation of apoptosis-related factors | significantly increased FFA level in the cytosol | decreased the expression level of FSP27 protein | markedly reduced the expression level of the PKCK2 protein | significantly increased the number of cells with condensed apoptotic nuclei | reduced the expression level of STAMP2 | significantly reversed 0.6 and 1.6 mM palmitate-induced lipotoxicity | substantially induced cell death | suppressed palmitate (P)-induced lipotoxicity | did not reduce cell viability | significantly reduced cell viability | much smaller | reduced the total LD volume | induced giant LD | induced LD accumulation |  |
| CCCCCCCCCCCCCCCC(=O)O [palmitate] |  |  |  |  |  |  |  |  | reduced the expression level of STAMP2 |  |  |  |  |  |  |  |  |  | significantly reduced cell viability |
